From paper PMC10517005, “A conserved membrane protein negatively regulates Mce1 complexes in mycobacteria” (Nature Communications, 2023)

Target: His6-YrbE1B (M. smegmatis) (UniProt A0QNR1)
Assay: pull-down

For Rv0513 (from UniProt O33358), the binding was “binds”.

No constants are given. Whether binding was seen depends on the method and setting. In cells and extracts the contact can be indirect. A result given as binding can be weak or reduced; the word gives no strength.
